From doi:10.1101/2021.12.21.473566
These are yes or no findings as the source states them, for the method shown. In cells and extracts the contact can be indirect. These calls come from enrichment with a bait or labelling near it, and not all partners need be listed. For some assays here: A no says only that the protein was not detected with the bait. For some assays here: Sequences can lack the tags named with a protein.

Columns and labels:
[1] = molecular target: T1, PTP1B-D181A-PafA-Myc (iPup Jurkat) (UniProt P18031); assay: proximity labelling
T1 sequence: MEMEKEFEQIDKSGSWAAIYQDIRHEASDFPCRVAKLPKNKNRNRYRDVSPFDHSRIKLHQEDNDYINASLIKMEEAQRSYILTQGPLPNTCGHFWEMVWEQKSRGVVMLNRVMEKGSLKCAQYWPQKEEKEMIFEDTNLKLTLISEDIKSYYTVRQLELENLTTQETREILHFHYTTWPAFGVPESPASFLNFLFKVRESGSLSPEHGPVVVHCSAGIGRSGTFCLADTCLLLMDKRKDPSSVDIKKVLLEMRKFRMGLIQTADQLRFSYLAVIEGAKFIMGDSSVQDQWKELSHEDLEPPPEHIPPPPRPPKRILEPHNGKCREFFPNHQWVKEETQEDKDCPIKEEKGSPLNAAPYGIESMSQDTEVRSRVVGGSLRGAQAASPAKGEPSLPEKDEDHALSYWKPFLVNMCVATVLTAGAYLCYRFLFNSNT

[2] = molecular target: SHP2-D425A-PafA-Myc (iPup Jurkat) (UniProt Q06124); assay: proximity labelling

B1: THEMIS (endogenous, Jurkat) (protein, UniProt Q8N1K5 1-641)
chain: MALSLEEFVHSLDLRTLPRVLEIQAGIYLEGSIYEMFGNECCFSTGEVIKITGLKVKKIIAEICEQIEGCESLQPFELPMNFPGLFKIVADKTPYLTMEEITRTIHIGPSRLGHPCFYHQKDIKLENLIIKQGEQIMLNSVEEIDGEIMVSCAVARNHQTHSFNLPLSQEGEFYECEDERIYTLKEIVEWKIPKNRTRTVNLTDFSNKWDSTNPFPKDFYGTLILKPVYEIQGVMKFRKDIIRILPSLDVEVKDITDSYDANWFLQLLSTEDLFEMTSKEFPIVTEVIEAPEGNHLPQSILQPGKTIVIHKKYQASRILASEIRSNFPKRHFLIPTSYKGKFKRRPREFPTAYDLEIAKSEKEPLHVVATKAFHSPHDKLSSVSVGDQFLVHQSETTEVLCEGIKKVVNVLACEKILKKSYEAALLPLYMEGGFVEVIHDKKQYPISELCKQFRLPFNVKVSVRDLSIEEDVLAATPGLQLEEDITDSYLLISDFANPTECWEIPVGRLNMTVQLVSNFSRDAEPFLVRTLVEEITEEQYYMMRRYESSASHPPPRPPKHPSVEETKLTLLTLAEERTVDLPKSPKRHHVDITKKLHPNQAGLDSKVLIGSQNDLVDEEKERSNRGATAIAETFKNEKHQK
- binding [1]: no binding
- binding [2]: binds
